# In PubChem BioAssay AID2551 (National Center for Advancing Translational Sciences (NCATS), 2010):
# Protein sequences, listed by entry. Tags and fused reporters are not part of them. Lines headed by an entry give the natural chain unless they say otherwise; changes in a name come on top.
# UniProt P51450: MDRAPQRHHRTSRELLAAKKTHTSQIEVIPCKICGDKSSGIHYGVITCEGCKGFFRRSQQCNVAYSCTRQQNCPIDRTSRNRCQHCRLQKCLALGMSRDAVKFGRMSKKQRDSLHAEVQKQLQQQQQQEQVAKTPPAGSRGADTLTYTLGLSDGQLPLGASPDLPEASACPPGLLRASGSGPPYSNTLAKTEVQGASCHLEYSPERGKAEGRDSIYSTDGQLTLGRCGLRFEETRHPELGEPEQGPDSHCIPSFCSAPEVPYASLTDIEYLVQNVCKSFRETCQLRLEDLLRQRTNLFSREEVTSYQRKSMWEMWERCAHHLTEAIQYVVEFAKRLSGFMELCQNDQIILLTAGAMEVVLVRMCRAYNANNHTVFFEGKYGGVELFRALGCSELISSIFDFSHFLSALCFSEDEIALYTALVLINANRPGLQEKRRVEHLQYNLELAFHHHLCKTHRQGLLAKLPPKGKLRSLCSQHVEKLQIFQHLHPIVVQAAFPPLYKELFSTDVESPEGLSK
# About 17,000 (5.5%) of roughly 310,000 compounds were called active. Inconclusive means that the source gave no clear call. Such entries were picked first, then a sample of the others. Calls come from the whole dose curve; as a rule, active = well fitted inhibition curve with a large enough effect; inconclusive = small, poorly fitted or top-dose-only effect, or effect the other way; inactive = no such curve, though single readings can be large or run the other way. Potencies beside an inconclusive call are fits to weak or partial responses and may not hold up.
# Molecular target: Nuclear receptor ROR-gamma (Mus musculus) (UniProt P51450)
# Assay: qHTS for inhibitors of ROR gamma transcriptional activity; note: nearly all actives have a fitted effect of over 60% in size
# Conditions: Drosophila S2 Gal4-RORgamma UAS-luciferase reporter, 20 h; series mostly up to 53.6 µM
# Method in brief: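 Using a luciferase readout, inhibitors were identified by reduced reporter activity in Drosophila cells coexpressing a copper-inducible Gal4–ROR gamma fusion and UAS-driven Photinus luciferase, incubated 20 hr after 700 uM copper sulfate.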
# Potency is the fitted concentration of half-maximal effect.
row,SMILES,Potency
1,O=C(c1ccc(CSc2ccc(Cl)cc2)cc1)N1CCCC1,"inconclusive: 12.6 µM [activator, partial curve]"
2,Cc1ccc2c(c1)cc(CN(Cc1cccnc1)C(=O)c1ccccc1)c1nnnn12,inactive
3,COc1ccc(N2CCN(CC(O)COCCOc3ccc(Br)cc3)CC2)cc1 (stereo unspecified),"inconclusive: 22.4 µM [activator, single point]"
4,O=C(NCc1ccc2c(c1)OCO2)C1CCC(CNS(=O)(=O)c2ccccc2)CC1 (stereo unspecified),"inconclusive: 0.708 µM [activator, full curve, poor fit]"
5,BrC(=C\c1ccccc1)/C=N/Nc1nc(N2CCOCC2)nc(N2CCOCC2)n1,inactive
6,CC1CN(CCCCOc2cccc(Oc3ccccc3)c2)CC(C)O1 (stereo unspecified),inactive
7,O=C(CSc1cc(Cl)ccc1Cl)NC1CCCC1,inactive
8,O=C(N/N=C1\CCCc2ccccc21)c1ccccc1[N+](=O)[O-],"inconclusive: 8.91 µM [activator, partial curve]"
9,CCOC(=O)c1ccc(NC(=O)c2cc(F)c(F)cc2Cl)cc1,"inconclusive: 10 µM [activator, partial curve]"
10,COC(=O)C1(C)NC(c2ccccc2C)C2C(=O)N(c3ccc(F)cc3)C(=O)C21 (stereo unspecified),"inconclusive: 5.01 µM [inhibitor, single point]"
11,CC(=O)N1c2ccc(S(=O)(=O)N3CCCC3C(=O)NCc3ccccc3Cl)cc2CC1C (stereo unspecified),active: 6.31 µM
12,Cc1nn(-c2cc(N3CCCCC3)ccc2[N+](=O)[O-])c(=O)c2ccccc12,"inconclusive: 1.58 µM [activator, partial curve]"
13,COc1cc(/C=C/[N+](=O)[O-])ccc1OC(=O)c1cc2ccccc2oc1=O,active: 15.8 µM
14,COc1cc2ccccc2cc1C(=O)Nc1ccc2oc(=O)ccc2c1,"inconclusive: 15.8 µM [inhibitor, partial curve, poor fit]"
15,CCC(Sc1nc(C)cc(C)n1)C(=O)Nc1nccs1 (stereo unspecified),"inconclusive: 10 µM [inhibitor, single point]"
16,CC(=O)Nc1cccc(NC(=S)Nc2cccc3ccccc23)c1,active: 12.6 µM
17,COCCNC(=O)COc1ccc(Oc2ccccc2)cc1,"inconclusive: 4.47 µM [activator, partial curve]"
18,COc1ccc(CNc2nc(NCc3ccc(OC)cc3)c3ncn(C(C)C)c3n2)cc1,"inconclusive: 12.6 µM [inhibitor, partial curve, poor fit]"
19,CCc1nnc(NC(=O)c2cccc(S(=O)(=O)N(C)c3ccc(OC)cc3)c2)s1,"inconclusive: 25.1 µM [inhibitor, single point]"
20,CCN(CC)S(=O)(=O)c1cccc(C(=O)NNC(=O)C2=NN(c3ccccc3)C(=O)CC2)c1,inactive
21,CCNC(=S)NNC(=O)c1ccccc1OC(F)F,active: 3.98 µM
22,COc1ccccc1-c1nnc(SCC(=O)Nc2ccc(Cl)cc2Cl)o1,inactive
23,O=c1c(-c2cccs2)nc2cnc(N3CCNCC3)nc2n1-c1ccccc1,inactive
24,COc1cc2c(Nc3ccc(NC(=O)c4ccccc4)cc3)ncnc2cc1OCCCN1CCOCC1,"inconclusive: 25.1 µM [inhibitor, single point]"

# Quoted at random: two records from the list, in no set order.
row,SMILES,Potency
10,COC(=O)C1(C)NC(c2ccccc2C)C2C(=O)N(c3ccc(F)cc3)C(=O)C21 (stereo unspecified),"inconclusive: 5.01 µM [inhibitor, single point]"
4,O=C(NCc1ccc2c(c1)OCO2)C1CCC(CNS(=O)(=O)c2ccccc2)CC1 (stereo unspecified),"inconclusive: 0.708 µM [activator, full curve, poor fit]"

# (listing goes on)

row,SMILES,Potency
1,CCN(Cc1ccc(O)cc1)CC1CCCN(CCc2cccc(F)c2)C1 (stereo unspecified),"inconclusive: 0.224 µM [activator, single point]"
2,COCCn1c(=S)[nH]c2cc(C(=O)N3CCN(c4ccc(F)cc4)CC3)ccc2c1=O,"inconclusive: 17.8 µM [inhibitor, single point]"
3,COC(=O)Nc1ccc(S(=O)(=O)N2CCN(c3ccc(F)cc3)CC2)cc1,"inconclusive: 14.1 µM [activator, single point]"
4,COCCN(CCOC)S(=O)(=O)c1ccc(C(=O)Nc2nc(-c3ccccc3)c(C(=O)c3ccccc3)s2)cc1,"inconclusive: 4.47 µM [activator, partial curve]"
5,COc1cc2c(cc1OC)CN(c1ccc([N+](=O)[O-])cc1Cl)CC2,"inconclusive: 1.58 µM [activator, partial curve]"
6,CCOc1ccccc1NC(=O)c1ccccc1-c1nc(-c2ccccc2)no1,"inconclusive: 11.2 µM [activator, partial curve]"
7,O=C(N/N=C/c1cc([N+](=O)[O-])ccc1O)C1C2CCCCC21 (stereo unspecified),active: 0.891 µM
8,Cn1ccnc1C1CCCCN1Cc1nc(-c2ccc(Cl)cc2)no1 (stereo unspecified),active: 10 µM
9,Cc1nc(NC(=O)c2ccco2)sc1-c1csc(Nc2ccc(Cl)cc2Cl)n1,"inconclusive: 35.5 µM [inhibitor, single point]"
10,CCc1ccc(C(=O)NC(=S)Nc2ccc(N3CCOCC3)cc2)cc1,active: 5.01 µM
11,CC1=NN(c2cccc(C(=O)O)c2)C(=O)/C1=C\C=C/c1ccccc1,active: 1.12 µM
12,CCOc1ccc(C(=O)Nc2ccccc2-c2ccccc2)cc1Cl,inactive
13,CCCC(=O)NC(C)c1nc2ccccc2[nH]1 (stereo unspecified),inactive
14,Cc1cc(NC(=O)CN(C)S(=O)(=O)c2ccc(-c3ccc(=O)[nH]n3)s2)ccc1Br,active: 12.6 µM
15,CCn1cc(CCC(=O)NC2CCCC2)c2ccccc21,inactive
16,Cc1ccc(S(=O)(=O)c2c(C)nn(C(C)(C)C)c2OC(=O)c2ccc(Br)o2)cc1,"inconclusive: 35.5 µM [inhibitor, single point]"
17,CC(C)(C)c1cccc(/C=N/O)c1O,"inconclusive: 35.5 µM [inhibitor, single point]"
18,CC(C)C(C)NC(=O)COc1ccc(OCc2ccccc2)cc1 (stereo unspecified),"inconclusive: 22.4 µM [activator, single point]"
19,CN(C)CCN=Cc1c(O)n(Cc2ccc3c(c2)OCO3)c(=O)c2ccccc12,"inconclusive: 15.8 µM [inhibitor, single point]"
20,Cc1ccc(C(=O)OCC(=O)Nc2c(C)n(C)n(-c3ccccc3)c2=O)cc1[N+](=O)[O-],inactive
21,CC(Cc1cccc(C(F)(F)F)c1)NCCOC(=O)c1ccccc1 (stereo unspecified),inactive
22,CCN(CC)c1ccc(/C=c2\sc3nnc(-c4ccccc4Cl)n3c2=O)cc1,inactive
23,CCOC1(c2ccccc2)CC1C(=O)N/N=C/c1cccc([N+](=O)[O-])c1 (stereo unspecified),"inconclusive: 12.6 µM [activator, single point]"
24,COC(=O)CSc1nc2cc3c(cc2cc1C)OCO3,inactive

row,SMILES,Potency
1,COc1ccc(C2/C=C\CN(CC3CC3)C(Cc3ccccc3)C(=O)N2Cc2ccc(F)cc2)cc1 (stereo unspecified),"inconclusive: 35.5 µM [inhibitor, single point]"
2,O=C1Nc2ccc(Br)cc2/C1=C/C(=O)c1ccc2c(c1)OCO2,active: 11.2 µM
3,CN(C)c1ccc2c(O)cc(=O)n(C)c2c1,"inconclusive: 17.8 µM [inhibitor, single point]"
4,Clc1ccc(Cl)c(OCCCCNCc2ccccc2)c1,inactive
5,CC(C)CN1C(=O)/C(=C/c2ccco2)NC1=S,"inconclusive: 35.5 µM [inhibitor, single point]"
6,COc1cc([N+](=O)[O-])ccc1N1C(=O)CC(Sc2nccc(C)n2)C1=O (stereo unspecified),"inconclusive: 22.4 µM [inhibitor, single point]"
7,CCN1C(=O)N/C(=C/c2ccc(C)o2)C1=O,"inconclusive: 35.5 µM [inhibitor, single point]"
8,CCOC(=O)/C=C(\C)N1N=C(c2ccccc2)CC1c1ccccc1 (stereo unspecified),"inconclusive: 35.5 µM [inhibitor, single point]"
9,CCn1c(C)nc2cc(C(=O)NNC(=S)Nc3ccc(Cl)cc3)ccc21,"inconclusive: 3.16 µM [inhibitor, single point]"
10,O=C(Nc1cccc(-c2nc3ccccc3s2)c1)c1cc(=O)c2ccccc2o1,inactive
11,CCCCc1n[nH]c2c1/C(=N/O)CC(C)(C)C2,"inconclusive: 10 µM [activator, partial curve, poor fit]"
12,O=C(Cn1cnc([N+](=O)[O-])c1)Nc1cc(Oc2ccc(Cl)cc2Cl)cc([N+](=O)[O-])c1,"inconclusive: 25.1 µM [inhibitor, single point]"
13,O=C(CSc1nnc(-c2ccc(S(=O)(=O)N3CCCC3)cc2)o1)NCc1ccco1,"inconclusive: 35.5 µM [inhibitor, single point]"
14,CCN(CC)C(=O)Cn1nc(-c2ccccc2O)nc1SCC(=O)Nc1ccc(OC)cc1,"inconclusive: 3.55 µM [activator, partial curve]"
15,CCOC(=O)C(C)(C)Sc1nc2c(cnn2-c2ccc(C)cc2)c(=O)[nH]1,"inconclusive: 12.6 µM [activator, partial curve]"
16,Cc1nonc1C1CCCN1C(=O)c1cc(COc2ccc(F)cc2F)on1 (stereo unspecified),"inconclusive: 14.1 µM [activator, single point]"
17,COc1ccc(C2=NCC(CSc3nnc(-c4ccc5c(c4)OCO5)o3)S2)cc1 (stereo unspecified),"inconclusive: 15.8 µM [activator, single point]"
18,COc1ccccc1NC(=O)C1CCN(C(=O)c2ccc(C(C)(C)C)cc2)CC1,"inconclusive: 14.1 µM [activator, single point]"
19,CC(=O)Nc1ccc(NC(=O)C(=O)c2cn(CC(=O)N3CCCC3)c3ccccc23)cc1,inactive
20,O=C(Cn1cnc2c(cnn2-c2ccccc2Cl)c1=O)N1CCc2ccccc21,"inconclusive: 35.5 µM [activator, single point]"
21,O=C(COC(=O)C1C2CC3OC(=O)C1C3C2)Nc1ccccc1 (stereo unspecified),inactive
22,CCCCNc1nc(C)nc2c1nc(C)n2CCC,"inconclusive: 12.6 µM [inhibitor, partial curve]"
23,O=C(CC1C(=O)NCCN1C(=O)Nc1ccc(C(F)(F)F)cc1)Nc1ccc(F)cc1 (stereo unspecified),"inconclusive: 0.708 µM [activator, full curve, poor fit]"
